Laboratory results reported in article PMC6255920.
Results are given in words; binding and its absence hold for the method and conditions named. In cells and extracts the contact can be indirect. Some entries that bind do so weakly or less than the wild type. Tags and fused reporters may be left off the sequences shown.

T1: Flag-BCL10 R42E, O95999
T1 chain: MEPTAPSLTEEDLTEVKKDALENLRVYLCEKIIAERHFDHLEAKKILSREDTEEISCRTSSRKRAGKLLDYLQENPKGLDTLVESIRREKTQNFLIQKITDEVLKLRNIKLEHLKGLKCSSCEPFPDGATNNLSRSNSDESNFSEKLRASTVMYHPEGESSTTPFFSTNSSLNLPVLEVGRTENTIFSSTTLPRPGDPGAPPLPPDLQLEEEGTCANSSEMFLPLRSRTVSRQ


How the values were obtained:
[1] = molecular target: BCL10 WT (HA-BCL10 WT and Flag-BCL10 WT) (UniProt O95999); experiment: co-IP; Flag-IP from HEK293 cells transfected with Flag- and HA-tagged BCL10 constructs; Western blot
Flag-BCL10 R42E, O95999 = molecular target: T1, Flag-BCL10 R42E, O95999; experiment: as above; details: remark: other sources report otherwise

binding [1]	binding (Flag-BCL10 R42E, O95999)	Binder
binds		BCL10 WT (HA-BCL10 WT and Flag-BCL10 WT) (protein, UniProt O95999 1-233) MEPTAPSLTEEDLTEVKKDALENLRVYLCEKIIAERHFDHLRAKKILSREDTEEISCRTSSRKRAGKLLDYLQENPKGLDTLVESIRREKTQNFLIQKITDEVLKLRNIKLEHLKGLKCSSCEPFPDGATNNLSRSNSDESNFSEKLRASTVMYHPEGESSTTPFFSTNSSLNLPVLEVGRTENTIFSSTTLPRPGDPGAPPLPPDLQLEEEGTCANSSEMFLPLRSRTVSRQ
	no binding	BCL10 WT (HA-BCL10 WT and Flag-BCL10 WT), O95999 1-233 (protein) MEPTAPSLTEEDLTEVKKDALENLRVYLCEKIIAERHFDHLRAKKILSREDTEEISCRTSSRKRAGKLLDYLQENPKGLDTLVESIRREKTQNFLIQKITDEVLKLRNIKLEHLKGLKCSSCEPFPDGATNNLSRSNSDESNFSEKLRASTVMYHPEGESSTTPFFSTNSSLNLPVLEVGRTENTIFSSTTLPRPGDPGAPPLPPDLQLEEEGTCANSSEMFLPLRSRTVSRQ
